Data on one sequence can be found in PMC5996148.

Among the test systems are BBS2 (human); BBS7 (human); BCAR3 (human); BCAS2 (human); BCL2A1 (human); BCL2L11 (human); BCL2L13 (human); BEGAIN (human); BET1 (human); BHMT (human); BHMT2 (human); BID (human); BIRC5 (human); BIRC7 (human); BLCAP (human); BLK (human).
Holding throughout (experiment): protein microarray (ProtoArray v5.0), streptavidin-Alexa Fluor 647
Holding throughout (conditions): 3'-biotin; 20 mM Tris (pH 7.5), 5 mM MgCl2, 100 mM KCl, 0.1% Tween-20, A/T-rich and random oligonucleotide blockers; temperature not stated; high values mean tight binding

For a further experiment, the target named is BCKDK (UniProt O14874).
The next experiment has as its target T1, BCL10 (UniProt O95999).
T1 sequence: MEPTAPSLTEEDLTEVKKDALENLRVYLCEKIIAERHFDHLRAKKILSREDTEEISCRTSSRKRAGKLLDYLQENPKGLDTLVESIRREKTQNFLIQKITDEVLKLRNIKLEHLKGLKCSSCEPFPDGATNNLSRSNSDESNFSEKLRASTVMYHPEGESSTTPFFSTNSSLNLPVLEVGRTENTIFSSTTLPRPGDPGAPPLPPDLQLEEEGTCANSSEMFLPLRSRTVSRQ

A further experiment deals with T2, BIN1 (UniProt O00499).
T2 sequence: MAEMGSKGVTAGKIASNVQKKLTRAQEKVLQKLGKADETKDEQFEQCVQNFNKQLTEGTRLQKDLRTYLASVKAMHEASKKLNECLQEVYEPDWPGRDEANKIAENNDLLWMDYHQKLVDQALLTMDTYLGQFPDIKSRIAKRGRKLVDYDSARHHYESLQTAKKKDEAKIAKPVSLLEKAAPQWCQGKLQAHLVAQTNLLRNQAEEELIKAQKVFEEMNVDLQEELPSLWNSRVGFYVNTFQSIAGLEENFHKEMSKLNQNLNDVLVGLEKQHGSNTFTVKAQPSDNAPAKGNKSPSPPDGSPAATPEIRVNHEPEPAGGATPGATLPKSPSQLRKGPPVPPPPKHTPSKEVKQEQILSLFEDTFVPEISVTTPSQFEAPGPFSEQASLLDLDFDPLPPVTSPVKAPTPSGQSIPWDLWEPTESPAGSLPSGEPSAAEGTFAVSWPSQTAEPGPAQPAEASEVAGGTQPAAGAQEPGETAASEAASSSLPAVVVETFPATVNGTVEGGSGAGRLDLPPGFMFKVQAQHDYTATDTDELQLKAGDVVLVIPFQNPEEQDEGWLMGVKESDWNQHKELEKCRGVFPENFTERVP

A further experiment has as its target T3, BIRC8 (UniProt Q96P09).
T3 sequence: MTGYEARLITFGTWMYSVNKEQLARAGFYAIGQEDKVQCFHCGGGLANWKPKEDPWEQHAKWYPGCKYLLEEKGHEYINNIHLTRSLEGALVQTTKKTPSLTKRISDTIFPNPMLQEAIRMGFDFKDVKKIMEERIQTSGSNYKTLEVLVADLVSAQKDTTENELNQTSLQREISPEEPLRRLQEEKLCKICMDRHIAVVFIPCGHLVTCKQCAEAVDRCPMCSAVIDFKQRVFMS

Several values for one entry are separate records, joined by “and”; a condition that tells them apart may be missing. Identical values can stand only once. Some of the results follow. For some assays here: The source does not settle which construct or isoform was used.

On to “GGGAGGCTGAGGCAGG [G4-1 biotinylated (PQS2)]”, for which the binding signal with BBS2 (human) is -0.33 z-score; in the experiment on BBS7 (human) it was -0.326 z-score; in the experiment on BCAR3 (human), -0.343 z-score; in the experiment with BCAS2 (human), -0.294 z-score; with BCKDK it was -0.303 z-score; with BCL10 it was -0.323 z-score. Also, the binding signal is -0.329 z-score in the experiment with BCL2A1 (human); -0.375 z-score in the experiment on BCL2L11 (human); -0.357 z-score with BCL2L13 (human); -0.312 z-score in the experiment with BEGAIN (human); -0.284 z-score with BET1 (human); -0.351 z-score in the experiment on BHMT (human). In addition, the binding signal in the experiment on BHMT2 (human) is -0.317 z-score; with BID (human) it was -0.354 z-score and -0.33 z-score and -0.355 z-score; with BIN1, -0.337 z-score and -0.341 z-score; in the experiment on BIRC5 (human) it was -0.356 z-score; in the experiment with BIRC7 (human), -0.337 z-score; with BIRC8, -0.37 z-score. The binding signal was -0.297 z-score in the experiment with BLCAP (human) and -0.314 z-score in the experiment on BLK (human).
